Values from PubChem BioAssay AID686943 (Drosophila RNAi Screening Center, 2013).
Assay: 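Search across the genome for regulators of signalling from receptor tyrosine kinase to ERK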 (primary screen). Cells: Drosophila S2R+ haemocyte-like cells expressing YFP-tagged ERK (Rolled). Reagents: long dsRNA against Drosophila genes. Challenge: insulin stimulation versus unstimulated cells; dose and duration not given. Read-out: 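Antibody staining for doubly phosphorylated ERK divided by ERK-YFP signal, as plate z-scores, in insulin-treated and untreated cells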. Direction: replicate 1, z-score of dpERK with insulin and replicate 2, z-score of dpERK with insulin: higher = more active ERK per ERK-YFP after insulin; replicate 1, z-score of dpERK under basal conditions: higher = more basal active ERK per ERK-YFP; replicate 1, z-score of ERK-YFP with insulin: higher = more YFP-tagged ERK signal.
In all, the deposit lists about 23,000 reagents; below is a random part of those that have a named target and a result. 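Extra replicates exist only for a retested subset of genes; insulin dose and duration not given; both raised and lowered dpERK matter.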 The record does not give: the amount of reagent, the time to read-out.

The first 2 records, ahead of the listing:
| predicted target | PubChem SID | replicate 1, z-score of dpERK with insulin | replicate 2, z-score of dpERK with insulin | replicate 1, z-score of dpERK under basal conditions | replicate 1, z-score of ERK-YFP with insulin |
| --- | --- | --- | --- | --- | --- |
| pn | SID104198614 | -0.62 | -0.43 | 0.09 | 0.09 |
| CG8195 | SID104186895 | -0.04 | 0.66 | -0.09 | 0.11 |

Main list, repeating the preview:
| predicted target | PubChem SID | replicate 1, z-score of dpERK with insulin | replicate 2, z-score of dpERK with insulin | replicate 1, z-score of dpERK under basal conditions | replicate 1, z-score of ERK-YFP with insulin |
| --- | --- | --- | --- | --- | --- |
| pn | SID104198614 | -0.62 | -0.43 | 0.09 | 0.09 |
| CG8195 | SID104186895 | -0.04 | 0.66 | -0.09 | 0.11 |
| CG6138 | SID104182725 | 0.01 | -0.29 | -0.47 | -0.28 |
| CG33306 | SID104181691 | 0.35 | 0.54 | 0.35 | -0.2 |
| CG14238 | SID104194524 | -1.5 | -1.7 | -1.47 | 0.28 |
| CG1138 | SID104192322 | 0.54 | -0.07 | -0.09 | 0.18 |
| CG7785 | SID104196103 | 0.38 | -0.08 | 0.35 | -0.23 |
| idc | SID104195472 | 1.53 | 1.89 | -2.01 | 1.25 |
| CG12826 | SID104185967 | -1.27 | -0.86 | -0.04 | 0.25 |
| CtsB | SID104199153 | 0.14 | -0.28 | -0.45 | -0.22 |
| kel | SID104183346 | 0.71 | -0.53 | 0.83 | -0.23 |
| mRpL13 | SID104181868 | -0.01 | 0.5 | -1.28 | 1.84 |
| mRpL17 | SID104188142 | 0.14 | 0.31 | -0.15 | 0.58 |
| ND-13B | SID104190435 | -0.67 | -0.3 | 1.12 | 0.51 |
| dos | SID104187784 | -5.34 | -4.8 | -4.19 | -2.19 |
| dos | SID104188505 | 0.34 | -0.19 | 0.68 | -0.38 |
| mRpS16 | SID104186944 | -1.15 | -0.33 | -0.44 | 1.09 |
| Cyp12b2 | SID104187156 | 0.43 | 0.13 | 0.57 | 0.52 |
| Mi-2 | SID104191014 | 0.2 | -1.24 | -1.81 | -3.37 |
| CG3919 | SID104190181 | 0.14 | 0.17 | -0.79 | 0.76 |
| CG17168 | SID104200696 | 0.59 | 0.4 | -1.25 | 0.22 |
| CG14073 | SID104189870 | 0.79 | 1.41 | -1.66 | -0.51 |
| Ir48a | SID104185093 | 0.2 | 0.77 | 0.56 | 0.01 |
